Experimental data as given in BigSolDB 2.1.

N[C@@H](Cc1ccc(O)cc1)C(=O)O
solubility (mole fraction) (in DMSO, 283.15 K): 0.000143 | solubility (mole fraction) (in DMSO, 288.15 K): 0.000159 | solubility (mole fraction) (in DMSO, 293.15 K): 0.000176 | solubility (mole fraction) (in DMSO, 298.15 K): 0.000193 | solubility (mole fraction) (in DMSO, 303.15 K): 0.000214 | solubility (mole fraction) (in DMSO, 308.15 K): 0.000234 | solubility (mole fraction) (in DMSO, 313.15 K): 0.000258 | solubility (mole fraction) (in DMSO, 318.15 K): 0.000282 | solubility (mole fraction) (in DMSO, 323.15 K): 0.000308 | solubility (mole fraction) (in ethanol, 283.15 K): 3.87e-07 | solubility (mole fraction) (in ethanol, 288.15 K): 5.16e-07 | solubility (mole fraction) (in ethanol, 293.15 K): 6.58e-07 | solubility (mole fraction) (in ethanol, 298.15 K): 8.69e-07 | solubility (mole fraction) (in ethanol, 303.15 K): 1.11e-06 | solubility (mole fraction) (in ethanol, 308.15 K): 1.4e-06 | solubility (mole fraction) (in ethanol, 313.15 K): 1.74e-06 | solubility (mole fraction) (in ethanol, 318.15 K): 2.14e-06 | solubility (mole fraction) (in ethanol, 323.15 K): 2.65e-06 | solubility (mole fraction) (in methanol, 283.15 K): 6.42e-07 | solubility (mole fraction) (in methanol, 288.15 K): 8.35e-07 | solubility (mole fraction) (in methanol, 293.15 K): 1.08e-06 | solubility (mole fraction) (in methanol, 298.15 K): 1.39e-06 | solubility (mole fraction) (in methanol, 303.15 K): 1.8e-06 | solubility (mole fraction) (in methanol, 308.15 K): 2.23e-06 | solubility (mole fraction) (in methanol, 313.15 K): 2.72e-06 | solubility (mole fraction) (in methanol, 318.15 K): 3.31e-06 | solubility (mole fraction) (in methanol, 323.15 K): 4.03e-06 | solubility (mole fraction) (in n-propanol, 283.15 K): 8.72e-08 | solubility (mole fraction) (in n-propanol, 288.15 K): 1.28e-07 | solubility (mole fraction) (in n-propanol, 293.15 K): 1.83e-07 | solubility (mole fraction) (in n-propanol, 298.15 K): 2.69e-07 | solubility (mole fraction) (in n-propanol, 303.15 K): 3.77e-07 | solubility (mole fraction) (in n-propanol, 308.15 K): 5.24e-07 | solubility (mole fraction) (in n-propanol, 313.15 K): 7.27e-07 | solubility (mole fraction) (in n-propanol, 318.15 K): 9.92e-07 | solubility (mole fraction) (in n-propanol, 323.15 K): 1.33e-06 | solubility (mole fraction) (in water, 283.15 K): 2.75e-05 | solubility (mole fraction) (in water, 288.15 K): 3.4e-05 | solubility (mole fraction) (in water, 293.15 K): 4.18e-05 | solubility (mole fraction) (in water, 298.15 K): 5e-05 | solubility (mole fraction) (in water, 303.15 K): 5.95e-05 | solubility (mole fraction) (in water, 308.15 K): 7.23e-05 | solubility (mole fraction) (in water, 313.15 K): 8.53e-05 | solubility (mole fraction) (in water, 318.15 K): 0.0001 | solubility (mole fraction) (in water, 323.15 K): 0.000119
